The assay concerns the target Tom22 with a hexahistidine tag at the C-terminus (Neurospora crassa) (UniProt Q07335). The assay can be described thus: co-purification.

The chains behind the UniProt entries cited, without tags or fusion partners. Where a name states a change or a piece, a line headed by the entry shows the natural chain unless it says otherwise.
UniProt Q07335: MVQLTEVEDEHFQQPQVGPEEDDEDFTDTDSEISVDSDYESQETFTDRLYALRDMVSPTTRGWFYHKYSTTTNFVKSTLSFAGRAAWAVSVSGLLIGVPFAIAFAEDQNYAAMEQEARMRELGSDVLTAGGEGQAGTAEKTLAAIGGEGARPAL
UniProt V5ILY4: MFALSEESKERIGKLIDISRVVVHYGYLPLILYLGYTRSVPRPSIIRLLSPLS

We go through one substance from doi:10.1101/2021.09.28.462098.

No constants are given. Whether binding was seen depends on the method and setting. Binding seen in cells or lysates may run through a third protein. Binding can be weak; no strength is given.

For Tom7 (from UniProt V5ILY4), the binding result is recorded as “binds”.
